The source of these data is publication PMC7819943, “Rice protein-binding microarrays: a tool to detect cis-acting elements near promoter regions in rice”.

The other results are listed elsewhere or left out.

The test has as its target T1, OsSMF1 (Oryza sativa, UniProt Q6ZLB0 1-436).
T1 sequence: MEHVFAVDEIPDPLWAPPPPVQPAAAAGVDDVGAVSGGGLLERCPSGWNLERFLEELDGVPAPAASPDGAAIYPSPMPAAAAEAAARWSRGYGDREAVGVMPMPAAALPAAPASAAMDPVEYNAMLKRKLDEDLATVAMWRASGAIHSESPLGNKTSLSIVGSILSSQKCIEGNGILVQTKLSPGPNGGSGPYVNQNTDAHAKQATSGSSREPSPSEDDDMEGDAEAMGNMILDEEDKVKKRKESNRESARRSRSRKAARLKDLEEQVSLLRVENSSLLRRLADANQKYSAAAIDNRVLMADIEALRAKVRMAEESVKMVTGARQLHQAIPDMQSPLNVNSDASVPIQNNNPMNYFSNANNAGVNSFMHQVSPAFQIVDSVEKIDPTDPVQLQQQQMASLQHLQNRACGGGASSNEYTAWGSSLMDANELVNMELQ
The test can be described thus: protein-binding microarray (RPBM); PBS, 2% BSA, 51.3 ng/ul salmon testes DNA, 50 uM zinc acetate, 200 nM TF, 25 C, 1 h; high values mean tight binding. As to conditions: protein: recombinant; tags: N-terminal polyhistidine and DsRed monomer fusion (pET32a); chain copies: 2; label: CyDye5-dUTP incorporated in the synthesized complementary strand; 3' TTTTT single-stranded linker to array surface; dsDNA, one strand shown. Summed up: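 Using Ni–NTA, transcription factors fused N-terminally to polyhistidine and DsRed were purified after expression in E. coli BL21-CodonPlus. These were incubated at 200 nM with a blocked, double-stranded custom Agilent array for 1 h at 25 °C in a buffer containing 50 µM zinc acetate, and the array was washed. The binding signal is per-feature fluorescence intensity (arbitrary units) on an Axon 4000B scanner.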
On to “ACTACAACAGTTTAATTAATATCCTGGTCATCCAAAAGCCCGGAGTCACCTAGTGCAG”, for which the binding signal was 3290 fluorescence intensity (a.u.).

For “GCAAGATTGGACGGTCCAGATCTCTAAAGTACGTCAGCACCGGAGTCACCTAGTGCAG”, the binding signal was 6320 fluorescence intensity (a.u.).

With “ATACTGACGTTGCGTCACTTCCTTAACTCGGGGTAGTACTCGGAGTCACCTAGTGCAG”, the binding signal is 6460 fluorescence intensity (a.u.).

Regarding “ATGTGAACGCCATGTAAGCAGGTCACGCGTGACAGCACGACGGAGTCACCTAGTGCAG”, the binding signal was 4580 fluorescence intensity (a.u.).

For the sequence “GCGCGTGGCGTGACAGAGTTATTTGGCCAGGTTTACATCTCGGAGTCACCTAGTGCAG”, the binding signal is 3210 fluorescence intensity (a.u.).

For “TTTGTTCTGGACGATTCGGGTCGTGCTGGTAACCTGAACTCGGAGTCACCTAGTGCAG”, the binding signal was 3220 fluorescence intensity (a.u.).

Consider “CGGCACATACATGCACCGGCGCGCGCACGTCACGACAACGCGGAGTCACCTAGTGCAG”, for which the binding signal was 7470 fluorescence intensity (a.u.).

As for “GGCCCATACGTCAGTGGCTGTATGACGCCACGTCAGCTGGCGGAGTCACCTAGTGCAG”, the binding signal is 36400 fluorescence intensity (a.u.).

For “AGGAATAAGCTCATTTGAAGTACCTGGATGTGGATTTTCTCGGAGTCACCTAGTGCAG”, the binding signal was 20000 fluorescence intensity (a.u.).

In the case of “CCTCGATCCGCCAGCTCGATCCACATGCATTGCCTCCCCTCGGAGTCACCTAGTGCAG”, the binding signal was 3400 fluorescence intensity (a.u.).

For the sequence “GTCCCACCCAACTAACGAGCGATGAATCAGCGAGCGACGACGGAGTCACCTAGTGCAG”, the binding signal was 4530 fluorescence intensity (a.u.).

For the sequence “ATTAAAATTTTGGTAGATAAACATAAGAATAAGCGAAAAGCGGAGTCACCTAGTGCAG”, the binding signal is 38800 fluorescence intensity (a.u.).

“GACGAGGTTGGGCTGCGCATTGAGCAGCCCATGGGCCCCGCGGAGTCACCTAGTGCAG”: the binding signal was 27100 fluorescence intensity (a.u.).

Regarding “CATATTTTGATGCTGAAGTCATCATAATTAGCTCGTTCGTCGGAGTCACCTAGTGCAG”, the binding signal was 4410 fluorescence intensity (a.u.).

“GGCCCGGTCGCCGGCAGATCGCACGTCACGACGAGGATCACGGAGTCACCTAGTGCAG”: the binding signal is 4020 fluorescence intensity (a.u.).

For the sequence “ACAGAAGTGGGCGGCCCACCGCCCAATCAGGGAGTCCTTGCGGAGTCACCTAGTGCAG”, the binding signal is 3510 fluorescence intensity (a.u.).

For “TGATCAAGGTACCATTCGTCTCTGACAACTCCACCGTGTGCGGAGTCACCTAGTGCAG”, the binding signal was 3420 fluorescence intensity (a.u.).

On to “GAGAGGAGGCTGACGTGGATATACTGACATGTGGGGTTCGCGGAGTCACCTAGTGCAG”, for which the binding signal was 14300 fluorescence intensity (a.u.).

Consider “ACTACCACTGCATAGTGTCATGCATCATTGACTCATCATCCGGAGTCACCTAGTGCAG”, for which the binding signal was 4750 fluorescence intensity (a.u.).

As for “GGCTCAAAAGATTCATCTCGCGATTTCCATACAAACTGTACGGAGTCACCTAGTGCAG”, the binding signal was 46300 fluorescence intensity (a.u.).

For the sequence “TTGCATTGAACTCATCATCATCCTTCAAATAATTCATCCACGGAGTCACCTAGTGCAG”, the binding signal was 3340 fluorescence intensity (a.u.).

As for “CGGAGGTCGCCGCGCCCGTGCCCACGCCAGAGCCATCACACGGAGTCACCTAGTGCAG”, the binding signal was 38900 fluorescence intensity (a.u.).

For “CTTCCCTCGCCCCGGTCGATCGATCGAAGCCGACGAAGCACGGAGTCACCTAGTGCAG”, the binding signal is 3260 fluorescence intensity (a.u.).

“ACATGCGTACACGCGCCACATACGTTACGTACGACGCCTACGGAGTCACCTAGTGCAG”: the binding signal was 4930 fluorescence intensity (a.u.).

With “GCAGCAGTGATGCACGCCCGCAAGAGACGAATCGTTTGCACGGAGTCACCTAGTGCAG”, the binding signal is 3770 fluorescence intensity (a.u.).

Turning to “CTAAACAAAGGATGAGGCTATGAGCACCCACCAACCATACCGGAGTCACCTAGTGCAG”, the binding signal was 34200 fluorescence intensity (a.u.).

Regarding “TGCCCACCCCTGCACCTGTCAGCGGCTCTACTTTTCGCCTCGGAGTCACCTAGTGCAG”, the binding signal is 3540 fluorescence intensity (a.u.).

Regarding “GGCATAATAGGCCAGCCGTGTAGGCAGAGACACCAGTCGGCGGAGTCACCTAGTGCAG”, the binding signal is 4530 fluorescence intensity (a.u.).

Regarding “TGTATGGTGTAGAAAAGTGCTGGTGTTGTTTACTTCATTGCGGAGTCACCTAGTGCAG”, the binding signal was 31300 fluorescence intensity (a.u.).

As to “GAAGAGTGGCAACCGCAGAGCCCACACGTAATCCTTTGCCCGGAGTCACCTAGTGCAG”, the binding signal is 4960 fluorescence intensity (a.u.).

In the case of “ACGACGACACGCACGCGCGGGGATGCAGCTTCGACTTCTCCGGAGTCACCTAGTGCAG”, the binding signal was 3150 fluorescence intensity (a.u.).

In the case of “TGGGCGCAGGCCGCAAGTCGACTGACCCCGCCGGGCCCAACGGAGTCACCTAGTGCAG”, the binding signal was 4096 fluorescence intensity (a.u.).

Turning to “ACGTTGATTAGTTAGTACTAACCTACTCCTACGTGTTAACCGGAGTCACCTAGTGCAG”, the binding signal is 4580 fluorescence intensity (a.u.).

“TAAACCCCACCCGCGGGACTACGTCATCATCCTGCCACTCCGGAGTCACCTAGTGCAG”: the binding signal was 8440 fluorescence intensity (a.u.).

“TAGATCGATAGCCTATCCACGCGGCATCTATCCAGGTCGGCGGAGTCACCTAGTGCAG”: the binding signal was 5160 fluorescence intensity (a.u.).

As for “CCCCAGGCGCTCACCCGCCACATCCGCTCCGCCTGCCTGCCGGAGTCACCTAGTGCAG”, the binding signal was 4690 fluorescence intensity (a.u.).

On to “GACTGCTTCGTCGTAACCCTTAGCGAGTAACGTGGCATATCGGAGTCACCTAGTGCAG”, for which the binding signal is 4140 fluorescence intensity (a.u.).

On to “CCTCTTGGGTTCACCTCATCAGGCCAAATGCCCATGCAAACGGAGTCACCTAGTGCAG”, for which the binding signal was 22700 fluorescence intensity (a.u.).

In the case of “AGGGACGACCAATGTCAACGCGCTGCGCTAATCACGCGCGCGGAGTCACCTAGTGCAG”, the binding signal was 3980 fluorescence intensity (a.u.).

In the case of “GCTGGCGTACGTGGCGGGGCTGCTCGTGTTCGTGCTTGCGCGGAGTCACCTAGTGCAG”, the binding signal was 10200 fluorescence intensity (a.u.).

In the case of “ATCACGCGATTAGAGCGAGCGCCACGCCGCGCCGTCGCCGCGGAGTCACCTAGTGCAG”, the binding signal is 3770 fluorescence intensity (a.u.).

Take “AGAATAGGTGGGTGGCAGAGTCACTGCCACCACCACTATTCGGAGTCACCTAGTGCAG”: the binding signal was 4920 fluorescence intensity (a.u.).
